Test results taken from PubChem BioAssay AID504847 (National Center for Advancing Translational Sciences (NCATS), 2011).
Several values for one entry are separate records, joined by “and”; a condition that tells them apart may be missing. Equal entries are not always repeated. The campaign covered roughly 400,000 compounds. About 3,700 (0.93%) were called active. Inconclusive means that the source gave no clear call. Such entries were picked first, then a sample of the others. Calls follow the shape of the dose curve; as a rule, active = well fitted inhibition curve with a large enough effect; inconclusive = small, poorly fitted or top-dose-only effect, or another doubt; inactive = no such curve, though single readings can be large or run the other way. Potencies beside an inconclusive call are fits to weak or partial responses and may not hold up. Some structures have more than one record in an assay (separate samples or runs), and their calls can disagree.

Protein sequences, listed by entry. Tags and fused reporters are not part of them. Lines headed by an entry give the natural chain unless they say otherwise; changes in a name come on top.
UniProt P11473: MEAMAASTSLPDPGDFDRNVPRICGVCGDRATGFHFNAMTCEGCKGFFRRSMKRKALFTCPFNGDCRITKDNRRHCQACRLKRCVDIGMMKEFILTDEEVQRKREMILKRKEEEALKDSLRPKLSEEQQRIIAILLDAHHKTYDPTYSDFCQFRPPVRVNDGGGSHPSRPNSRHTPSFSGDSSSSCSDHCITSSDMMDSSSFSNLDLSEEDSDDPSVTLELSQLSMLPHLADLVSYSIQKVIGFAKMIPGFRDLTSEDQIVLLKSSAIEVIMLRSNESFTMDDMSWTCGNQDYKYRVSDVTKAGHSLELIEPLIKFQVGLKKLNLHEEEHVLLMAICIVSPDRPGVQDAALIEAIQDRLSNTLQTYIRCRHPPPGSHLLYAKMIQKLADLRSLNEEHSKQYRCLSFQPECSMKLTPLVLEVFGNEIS

What follows are compounds tested against Vitamin D3 receptor (Homo sapiens) (UniProt P11473) (assay: Inhibitors of the vitamin D receptor (VDR): qHTS). Details: VDR-SRC2-3 peptide fluorescence polarization, 2 h; max response, negative = inhibition: stronger effect = lower value.
Outline: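 VDR–SRC2-3 interaction, FP format. Cmpds 23 nl via pintool, brief spin, 2 h ambient incubation.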
% is scaled to controls: 0 for no effect and ±100 for the full control effect; potency is read from the fitted curve at half-maximal effect.

Q: With `CC[C@H](C)[C@H](NC(=O)[C@H](Cc1ccc(O)cc1)NC(=O)[C@@H]1CCCN1C(=O)[C@H](CCCCN)NC(=O)[C@@H](N)CCCCN)C(=O)N[C@@H](CC(C)C)C(=O)O` as the compound, how does the max response, negative = inhibition read?
A: inactive: -8.67%

Q: For `CCn1nc(C)cc1C(=O)Sc1cccc(Cl)c1`, which Potency is on record?
A: inconclusive: 79.4 µM [inhibitor, partial curve]

Q: How did the Potency turn out when `N#C/C(=C\c1ccc(Cl)cc1)C(=O)NCC1CCCO1` (stereo unspecified) was run?
A: inconclusive: 89.1 µM [inhibitor, single point]

Q: For `NC(=O)C1CCN(C(=O)CC2(CC(=O)O)CCCC2)CC1`, which max response, negative = inhibition is on record?
A: inactive: -6.51%

Q: `Nc1sc2c(c1C(=O)c1ccc(Cl)cc1)CCCC2` was tested. Which Potency did it give?
A: active: 44.7 µM

Q: With `CC1CN(C(=O)CCC(=O)NCc2ccccc2)c2ccccc2O1` (stereo unspecified) as the compound, how does the Potency read?
A: inconclusive: 79.4 µM [inhibitor, partial curve, poor fit]

Q: With `Cc1nnc(N2CCC(C(=O)NC(C)C)CC2)c2nn(-c3ccc(Cl)cc3)c(C)c12` as the compound, how does the max response, negative = inhibition read?
A: inactive: 5.22%

Q: Which Potency does the source give for `CC(=O)N1CCN(C(=S)c2ccc(-c3ccc(Cl)cc3)o2)CC1` here?
A: active: 50.1 µM

Q: Which max response, negative = inhibition does the source give for `Cc1cccc(-c2cc3nc4c(c(N5CCC6(CC5)OCCO6)n3n2)CCCC4)c1` here?
A: inactive: 1.57%

Q: For `N[C@@]1(C(=O)O)CO[C@H]2[C@H](C(=O)O)[C@H]21`, which max response, negative = inhibition is on record?
A: inactive: 13.7%

Q: `c1cc(SC2CCCCC2)cc(-c2nc3cnccn3c2NC2CCCCC2)c1` was tested. Which max response, negative = inhibition did it give?
A: inactive: -24.4%

Q: How did the Potency turn out when `O=C(CSc1n[nH]c(-c2cccnc2)n1)OC1CCCCC1` was run?
A: inconclusive: 31.6 µM [inhibitor, single point]

Q: How did the Potency turn out when `COc1ccc(Cc2[nH]n3c(=O)c(Cl)c(C)nc3c2-c2ccccc2)cc1` was run?
A: inconclusive: 50.1 µM [inhibitor, partial curve]

Q: `O=c1c(-c2cc(O)c(O)c(O)c2)coc2cc(O)c(O)c(O)c12` was tested. Which Potency did it give?
A: active: 14.1 µM

Q: How did the Potency turn out when `CCOC(=O)C(=Cc1ccc(OCc2ccc([N+](=O)[O-])cc2)c(OC)c1)C(=O)OCC` was run?
A: active: 79.4 µM

Q: How did the max response, negative = inhibition turn out when `NC(=O)CC(NC(=O)c1ccc(Br)cc1)c1ccc(NCc2ccc(F)c(F)c2)c([N+](=O)[O-])c1` (stereo unspecified) was run?
A: inactive: 10.7%

Q: With `CC(=O)N1CCCN(C(=O)c2ccc3nc(Cc4cccc(Cl)c4)oc3c2)CC1` as the compound, how does the Potency read?
A: inconclusive: 100 µM [inhibitor, single point]

Q: Which Potency does the source give for `CC(C)CN(C(=O)COC(=O)CCSc1ccc(F)cc1)c1c(N)n(Cc2ccccc2)c(=O)[nH]c1=O` here?
A: inconclusive: 39.8 µM [inhibitor, partial curve, poor fit]

Q: For `O=C(Nc1ccccc1)Nc1nncs1`, which max response, negative = inhibition is on record?
A: inactive: -10.5%

Q: Which Potency does the source give for `O=C(Nc1cc(F)ccc1F)N1CCN(c2ccnc3cc(Cl)ccc23)CC1` here?
A: inconclusive: 89.1 µM [inhibitor, single point]

Q: How did the Potency turn out when `C=CCNC(=O)CSCc1ccc(Br)cc1` was run?
A: inconclusive: 79.4 µM [inhibitor, partial curve]

Q: `O=c1cc(-c2ccc(F)cc2)[nH][nH]1` was tested. Which Potency did it give?
A: inconclusive: 89.1 µM [inhibitor, single point]

Q: Which Potency does the source give for `Cc1cc(C)c(C(=O)/C=C/c2ccc(C(C)C)cc2)c(=O)[nH]1` here?
A: inconclusive: 50.1 µM [inhibitor, partial curve, poor fit]

Q: For `CC(=O)c1ccc(S(=O)(=O)N2CCN(c3nn(C)c(=O)n(C)c3=O)CC2)cc1`, which Potency is on record?
A: inconclusive: 79.4 µM [inhibitor, single point]

Q: How did the Potency turn out when `CC(C)(C)OC(=O)NCCCC[C@@H](C(=O)NCCCCCCCCCCC(=O)N1CCN(C(=O)OC(C)(C)C)CC1)n1cc(CCO)nn1` was run?
A: inconclusive: 8.91 µM [inhibitor, partial curve, poor fit]

Q: With `N#CC(C#N)=Cc1ccc(NC(=O)c2ccc(Br)cc2)cc1` as the compound, how does the Potency read?
A: inconclusive: 89.1 µM [inhibitor, single point]

Q: For `C=CCOc1ccc(/C=C2\SC(=Nc3cccnc3)NC2=O)cc1`, which max response, negative = inhibition is on record?
A: inactive: 1.11%

Q: With `COc1ccc(OC)c(C2CC(=O)Nc3ccc4ccccc4c32)c1` (stereo unspecified) as the compound, how does the Potency read?
A: inconclusive: 89.1 µM [inhibitor, partial curve, poor fit]

Q: With `CC(C)(C)c1cc(C(=S)N2CCN(CCO)CC2)cc(C(C)(C)C)c1O` as the compound, how does the Potency read?
A: active: 39.8 µM

Q: How did the Potency turn out when `O=C(NCCc1ccccc1)c1ccc2nc(-c3ccco3)c(-c3ccco3)nc2c1` was run?
A: inconclusive: 79.4 µM [inhibitor, partial curve, poor fit]

Q: For `O=C(CN1CCN(Cc2ccccc2)CC1)Nc1nnc(C(F)(F)F)s1`, which Potency is on record?
A: inconclusive: 89.1 µM [inhibitor, partial curve, poor fit]

Q: `CCN(C(=O)COC(=O)CSc1ccc(C)cc1C)c1c(N)n(Cc2ccccc2)c(=O)[nH]c1=O` was tested. Which Potency did it give?
A: inconclusive: 100 µM [inhibitor, partial curve, poor fit]

Q: For `COc1ccccc1-c1cc(C(F)(F)F)nc(S(=O)(=O)CCCC(=O)O)n1`, which Potency is on record?
A: inconclusive: 100 µM [inhibitor, partial curve, poor fit]

Q: How did the max response, negative = inhibition turn out when `O=C(NNC(=O)C12CC3CC(CC(C3)C1)C2)c1cccc(O)c1` was run?
A: inactive: 4.46%

Q: Which Potency does the source give for `COC(=O)N1CCC2(CCCN(Cc3ccc(C#N)cc3)C2)CC1` here?
A: inconclusive: 79.4 µM [inhibitor, partial curve, poor fit]

Q: With `COCCCNC(=S)NNC(=S)Nc1cccc(Cl)c1` as the compound, how does the Potency read?
A: inconclusive: 100 µM [inhibitor, partial curve, poor fit]

Q: How did the max response, negative = inhibition turn out when `COc1ccc(C(C(=O)NC2CCCCC2)N(C(=O)Cc2c[nH]c3ccccc23)c2ccccc2C)cc1OC` (stereo unspecified) was run?
A: inactive: 1.19%

Q: With `CC1(C(=O)NC(=S)N(Cc2ccccc2)c2ccccn2)CC1(Cl)Cl` (stereo unspecified) as the compound, how does the Potency read?
A: inconclusive: 79.4 µM [inhibitor, partial curve]

Q: Which Potency does the source give for `COc1ccc(CCNC(=O)CCCOc2ccc(C)cc2)cc1OC` here?
A: active: 50.1 µM

Q: For `c1ccc(Cn2nnnc2C(c2cccs2)N2CCc3ccccc3C2)cc1` (stereo unspecified), which max response, negative = inhibition is on record?
A: inactive: 43.9%

Q: Which Potency does the source give for `NS(=O)(=O)c1ccc(Nc2nc3ccccc3nc2NS(=O)(=O)c2cccc([N+](=O)[O-])c2)cc1` here?
A: inconclusive: 89.1 µM [inhibitor, single point]

Q: `CCCCN1CCCCC1C(=O)Nc1c(C)cccc1C` (stereo unspecified) was tested. Which Potency did it give?
A: inconclusive: 100 µM [inhibitor, single point]

Q: With `CCC1(C)COC(C)(CC(=O)NNC(=O)Nc2ccccc2)OC1` (stereo unspecified) as the compound, how does the max response, negative = inhibition read?
A: inactive: -24.3%

Q: For `N#C/C(=N\Nc1ccc(Cl)cc1)C(N)=S`, which max response, negative = inhibition is on record?
A: inactive: -28.9%

Q: `O=C(O)CCN1C(=O)/C(=C\c2cccc(OCc3ccccc3)c2)SC1=S` was tested. Which Potency did it give?
A: inconclusive: 50.1 µM [inhibitor, partial curve, poor fit]

Q: For `Cn1cc(C(=O)NCc2ccc(F)cc2)c(=O)c2cc(S(=O)(=O)N3CCCCC3)ccc21`, which Potency is on record?
A: inconclusive: 89.1 µM [inhibitor, single point]

Q: For `Cn1c2c(c(=O)[nH]c1=O)C(c1ccc(O)cc1)C1=C(N2)c2ccccc2C1=O` (stereo unspecified), which max response, negative = inhibition is on record?
A: inactive: -16%

Q: `CC(C)(C)OC(=O)N1CCC(NC(=O)c2ncn(Cc3ccccc3)c2C(=O)NC2CCN(C(=O)OC(C)(C)C)CC2)CC1` was tested. Which max response, negative = inhibition did it give?
A: inactive: -21.1%

Q: With `COc1ccc(-n2cc(-c3ccc(OC(F)F)cc3)[n+]3c2CCCCC3)cc1` as the compound, how does the max response, negative = inhibition read?
A: inactive: 3.1%

Q: Which Potency does the source give for `Cc1nc2c(=O)[nH]c(=S)n(C)c2nc1C` here?
A: active: 50.1 µM

Q: With `COCCCNC(=O)Cn1c(=O)n(CCCC(=O)NCc2ccc(C)cc2)c(=O)c2ccccc21` as the compound, how does the max response, negative = inhibition read?
A: inactive: -2.31%

Q: Which Potency does the source give for `Cc1cc(C)c2c(c1)[C@@H]1C=CC[C@@H]1[C@H](c1ccc(S(=O)(=O)N3CCOCC3)cc1)N2` here?
A: inconclusive: 89.1 µM [inhibitor, single point]

Q: For `O=C1Nc2ccccc2/C1=C/c1cccnc1`, which Potency is on record?
A: inconclusive: 25.1 µM [inhibitor, partial curve, poor fit]

Q: For `COc1ccc(NCc2ccc(OC)c(Cn3ccnc3)c2)c(OC)c1`, which Potency is on record?
A: inconclusive: 89.1 µM [inhibitor, partial curve, poor fit]

Q: `O=C1Nc2cc(C(=O)N3CCN(c4ccc(F)cc4)CC3)ccc2NC1CSCc1cccc(F)c1` (stereo unspecified) was tested. Which Potency did it give?
A: inconclusive: 89.1 µM [inhibitor, partial curve, poor fit]

Q: Which max response, negative = inhibition does the source give for `CCOC(=O)c1c(NC(=O)c2ccc(S(=O)(=O)N3CCCC(C)C3)cc2)sc2c1CC(C)(C)NC2(C)C` (stereo unspecified) here?
A: inactive: -5.65%

Q: Which Potency does the source give for `COc1ccc(OC)c(C2CC(=O)N3CN(c4cccc(Cl)c4)CSC3=C2C#N)c1` (stereo unspecified) here?
A: active: 50.1 µM

Q: How did the Potency turn out when `CCOC(=O)/C(=C/c1ccc(OC(F)F)cc1)C1=Nn2c(nnc2-c2ccc(Cl)cc2)SC1` was run?
A: active: 8.91 µM

Q: Which Potency does the source give for `CCc1oc2ccccc2c1C(=O)c1cc(Br)c(O)c(Br)c1` here?
A: active: 28.2 µM and active: 50.1 µM

Q: How did the max response, negative = inhibition turn out when `OC(COCC1CC=CCC1)Cn1cnc2ccccc21` (stereo unspecified) was run?
A: inactive: 18.9%

Q: `Cc1cc(C(=O)CCl)c(C)n1Cc1ccco1` was tested. Which Potency did it give?
A: inconclusive: 79.4 µM [inhibitor, single point]

Q: How did the max response, negative = inhibition turn out when `CCCn1c2ccccc2c2cnn(CC(=O)NCC3CCN(Cc4ccccc4C)CC3)c(=O)c21` was run?
A: inactive: 10.7%

Q: `O=C(COC(=O)c1ccc(CNS(=O)(=O)c2ccc(F)c(Cl)c2)cc1)NCC1CCCCC1` was tested. Which Potency did it give?
A: inconclusive: 100 µM [inhibitor, single point]

Q: Which max response, negative = inhibition does the source give for `Cc1ccc2c(c1)[C@H]1[C@H](CO2)[C@H](c2ccccc2)[C@]2(C)C(=O)Nc3cc(F)ccc3C(=O)N12` here?
A: inactive: -15.2%

Q: For `Cc1cccc(NC(=O)CCS(=O)(=O)c2cc3c(cc2Cl)NC(=O)CO3)c1`, which Potency is on record?
A: inconclusive: 22.4 µM [inhibitor, partial curve, poor fit]

Q: For `Cc1sc2nc(CSC(C)C(=O)Nc3ccc(Cl)cn3)[nH]c(=O)c2c1C` (stereo unspecified), which max response, negative = inhibition is on record?
A: inactive: -11.8%
